{"source": "PubChem BioAssay AID1224828 (NIAID, 2016)", "aim": "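Find genes required for NF-kappaB p65 moving into the nucleus after LPS in mouse macrophages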 (primary screen)", "cell system": "mouse RAW264.7 G9 macrophage reporter cells (GFP-p65, Tnf promoter-mCherry)", "reagent": "siRNA pool against mouse genes, 100 nM", "timing": "2 days siRNA transfection, then 40 min LPS before fixation", "treatment": "LPS (Salmonella minnesota R595) at 10 ng/ml", "read-out": "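Microscopy ratio of nuclear to perinuclear-ring GFP-p65 signal, scaled to the plate median; gene score is the average of two replicate robust z-scores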", "reading the numbers": "p65 translocation robust z-score: higher = more nuclear NF-kappaB p65 after LPS than the plate median; nuclear/cytoplasmic p65 ratio: higher = more nuclear NF-kappaB p65", "active means": "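Active if robust z is above 3.3 (negative regulators) or below -1.56, the Tlr4 control median (positive regulators); activity score 50 or more; control wells not called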", "meaning of the calls": "active = hit (p65 shift raised or lowered); inactive = no clear change", "note": "In all, the deposit lists about 17,000 reagents; this is a part drawn at random. Of all reagents, 762 (4.5%) were called active. 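Active calls include both raised and lowered p65 entry, mostly lowered; wells with fewer than 50 cells lack a z-score.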 The raw values are shown without normalisation. Unmarked entries are inactive. No sequences are given here."}
{"gene": "Mylk3 (GeneID 213435)", "p65 translocation robust z-score": -0.32, "nuclear/cytoplasmic p65 ratio, rep 1": 1.71, "nuclear/cytoplasmic p65 ratio, rep 2": 1.28, "low cell count flag": "enough cells to score"}
{"gene": "Hat1 (GeneID 107435)", "p65 translocation robust z-score": 0.07, "nuclear/cytoplasmic p65 ratio, rep 1": 1.4, "nuclear/cytoplasmic p65 ratio, rep 2": 1.43, "low cell count flag": "enough cells to score"}
{"gene": "Abcc2 (GeneID 12780)", "p65 translocation robust z-score": 0.58, "nuclear/cytoplasmic p65 ratio, rep 1": 1.67, "nuclear/cytoplasmic p65 ratio, rep 2": 1.73, "low cell count flag": "enough cells to score"}
{"gene": "Ano6 (GeneID 105722)", "p65 translocation robust z-score": -0.24, "nuclear/cytoplasmic p65 ratio, rep 1": 1.13, "nuclear/cytoplasmic p65 ratio, rep 2": 1.17, "low cell count flag": "enough cells to score"}
{"gene": "Dusp26 (GeneID 66959)", "p65 translocation robust z-score": 0.45, "nuclear/cytoplasmic p65 ratio, rep 1": 1.67, "nuclear/cytoplasmic p65 ratio, rep 2": 1.7, "low cell count flag": "enough cells to score"}
{"gene": "Gimap7 (GeneID 231932)", "p65 translocation robust z-score": -0.91, "nuclear/cytoplasmic p65 ratio, rep 1": 1.47, "nuclear/cytoplasmic p65 ratio, rep 2": 1.27, "low cell count flag": "enough cells to score"}
{"gene": "Mfap5 (GeneID 50530)", "p65 translocation robust z-score": 0.27, "nuclear/cytoplasmic p65 ratio, rep 1": 1.78, "nuclear/cytoplasmic p65 ratio, rep 2": 1.57, "low cell count flag": "enough cells to score"}
{"gene": "Grid1 (GeneID 14803)", "nuclear/cytoplasmic p65 ratio, rep 1": 1.55, "nuclear/cytoplasmic p65 ratio, rep 2": 1.18, "low cell count flag": "fewer than 50 cells per well; well left out of scoring"}
{"gene": "Paxip1 (GeneID 55982)", "p65 translocation robust z-score": 0.4, "nuclear/cytoplasmic p65 ratio, rep 1": 1.54, "nuclear/cytoplasmic p65 ratio, rep 2": 1.43, "low cell count flag": "enough cells to score"}
{"gene": "5830411J07Rik (GeneID 74742)", "p65 translocation robust z-score": "-2.13 (active)", "nuclear/cytoplasmic p65 ratio, rep 1": 1.18, "nuclear/cytoplasmic p65 ratio, rep 2": 1.18, "low cell count flag": "enough cells to score"}
{"gene": "Ddx41 (GeneID 72935)", "p65 translocation robust z-score": 0.26, "nuclear/cytoplasmic p65 ratio, rep 1": 1.63, "nuclear/cytoplasmic p65 ratio, rep 2": 1.57, "low cell count flag": "enough cells to score"}
{"gene": "Or52ad1 (GeneID 259048)", "nuclear/cytoplasmic p65 ratio, rep 1": 1.41, "nuclear/cytoplasmic p65 ratio, rep 2": 0, "low cell count flag": "fewer than 50 cells per well; well left out of scoring"}
{"gene": "Psmc5 (GeneID 19184)", "nuclear/cytoplasmic p65 ratio, rep 1": 1.17, "nuclear/cytoplasmic p65 ratio, rep 2": 1.26, "low cell count flag": "fewer than 50 cells per well; well left out of scoring"}
{"gene": "Iftap (GeneID 68170)", "p65 translocation robust z-score": -0.82, "nuclear/cytoplasmic p65 ratio, rep 1": 1.44, "nuclear/cytoplasmic p65 ratio, rep 2": 1.43, "low cell count flag": "enough cells to score"}
